Some of these results come from one statement about several compounds together. At least one structure is not confirmed: it was looked up by name or label, or the drawing left a doubt.
How the values were obtained:
[1] = test system: diamond back moth (Plutella xylostella); test: Insecticidal effect on diamond back moth (Test Example 6); type: in vivo; settings: 500 ppm, Chinese cabbage seedling with eggs immersed about 30 seconds, 25° C., hatched insects counted six days after immersion
[2] = test system: brown rice planthopper (Nilaparvata lugens); test: Insecticidal effect on brown rice planthopper (Test Example 8); type: in vivo; settings: 500 ppm, rice seedlings (variety: Nihombare) dipped 30 seconds, ten 3rd instar nymphs, counted eight days after treatment

| Structure (SMILES) | insecticidal effect (mortality) [1] | insecticidal effect (insect death rate) [2] |
| --- | --- | --- |
| Cc1nn(C)c(Cl)c1NC(=O)Cc1ccc(C(F)(F)F)cc1 [Compound A-19] | A (Mortality 100%) |  |
| Cc1nn(C)c(Cl)c1NC(=O)Cc1ccc([N+](=O)[O-])cc1 [Compound A-21] | A (Mortality 100%) |  |
| COCCOc1ccc(CC(=O)Nc2c(C)nn(C)c2Cl)cc1 [Compound A-32] | A (Mortality 100%) |  |
| Cc1nn(C)c(Cl)c1NC(=O)Cc1ccc(Oc2ccc(C#N)cc2)cc1 [Compound B-3, 5-chloro-4-(4-(4-cyanophenoxy)phenylacetoamino)-1,3-dimethylpyrazole] | A (Mortality 100%) |  |
| Cc1nn(C)c(Cl)c1NC(=O)Cc1ccc(Oc2ccc([N+](=O)[O-])cc2)cc1 [Compound B-4] | A (Mortality 100%) |  |
| Cc1nn(C)c(Cl)c1NC(=O)Cc1ccc(Oc2ccc(S(C)(=O)=O)cc2)cc1 [Compound B-5] | A (Mortality 100%) |  |
| Cc1nn(C)c(C#N)c1NC(=O)Cc1ccc(Oc2ccc(C#N)cc2)cc1 [Compound B-11] | A (Mortality 100%) |  |
| CSc1c(NC(=O)Cc2ccc(Oc3ccc(C#N)cc3)cc2)c(C)nn1C [Compound B-18] | A (Mortality 100%) |  |
| CSc1c(NC(=O)Cc2ccc(Oc3ccc(C#N)cc3)cc2)c(O)nn1C [Compound B-19] | A (Mortality 100%) |  |
| CCn1nc(C)c(NC(=O)Cc2ccc(Oc3ccc(C#N)cc3)cc2)c1Cl [Compound B-20] | A (Mortality 100%) |  |
| Cc1nn(C)c(Cl)c1NC(=O)Cc1ccc(OC(C)c2ccccc2)cc1 (stereo not drawn) [Compound B-30] | A (Mortality 100%) |  |
| COc1cc(CC(=O)Nc2c(C)nn(C)c2Cl)ccc1Oc1ccc(C#N)cc1 [Compound B-53] | A (Mortality 100%) |  |
| Cc1nn(CCCl)c(Cl)c1NC(=O)Cc1ccc(Oc2ccc(C#N)cc2)cc1 [Compound B-54] | A (Mortality 100%) |  |
| Cn1ncc(NC(=O)Cc2ccc(OCc3ccc(C#N)cc3)cc2)c1Cl [Compound B-61] | A (Mortality 100%) |  |
| Cc1nn(C)c(Cl)c1NC(=O)Cc1ccccc1OCc1ccccc1 [Compound B-75] | A (Mortality 100%) |  |
| Cc1nn(C)c(Cl)c1NC(=O)Cc1ccc(C(=O)c2ccccc2)cc1 [Compound B-76] | A (Mortality 100%) |  |
| Cc1nn(C)c(Cl)c1N(C)C(=O)Cc1ccc(Oc2ccc(C#N)cc2)cc1 [Compound B-88] |  | A (Mortality 100%) |
| COc1cc(CC(=O)Nc2c(C)nn(C)c2Cl)ccc1Oc1ccc(C(C)=O)cc1 [Compound B-96] | A (Mortality 100%) |  |
| COc1cc(CC(=O)Nc2c(C)nn(C)c2Cl)ccc1Oc1ccc(I)cc1 [Compound B-97] | A (Mortality 100%) |  |
| Cn1ncc(NC(=O)Cc2ccc(Oc3ccc(I)cc3)cc2)c1Cl [Compound B-100] |  | A (Mortality 100%) |
| Cc1nn(C)c(Cl)c1NC(=O)Cc1ccc(Nc2ccc(Cl)cc2)cc1 [Compound B-101] |  | A (Mortality 100%) |
| Cc1nn(C)c(Cl)c1NC(=O)Cc1ccc(Oc2ccc(Cl)cc2)c([N+](=O)[O-])c1 [Compound B-105] | A (Mortality 100%) |  |

| Structure (SMILES) | insecticidal effect (mortality) [1] | insecticidal effect (insect death rate) [2] |
| --- | --- | --- |
| Cn1ncc(NC(=O)Cc2ccc(Oc3ccc(Cl)c(Cl)c3)cc2)c1Cl [Compound B-108] |  | A (Mortality 100%) |
| CCn1ncc(NC(=O)Cc2ccc(Oc3ccc(C#N)cc3)c(OC)c2)c1Cl [Compound B-110] | A (Mortality 100%) |  |
| CCn1ncc(NC(=O)Cc2ccc(Oc3ccc(Cl)cc3)c(OC)c2)c1Cl [Compound B-111] |  | A (Mortality 100%) |
| CNc1cc(CC(=O)Nc2c(C)nn(C)c2Cl)ccc1Oc1ccc(Cl)cc1 [Compound B-112] |  | A (Mortality 100%) |
| Cn1ncc(NC(=O)Cc2ccc(Oc3ccc(Cl)cc3)cc2)c1Cl [Compound B-114] |  | A (Mortality 100%) |
| CSc1cc(CC(=O)Nc2cnn(C)c2Cl)ccc1Oc1ccc(Cl)cc1 [Compound B-115] |  | A (Mortality 100%) |
| CCn1ncc(NC(=O)Cc2ccc(Oc3ccc(F)cc3)cc2)c1Cl [Compound B-116] |  | A (Mortality 100%) |
| CC(C)Oc1cc(CC(=O)Nc2cnn(C)c2Cl)ccc1Oc1ccc(Cl)cc1 [Compound B-120] |  | A (Mortality 100%) |
| CCOCN(C(=O)Cc1ccc(Oc2ccc(C#N)cc2)c(OC)c1)c1cnn(C)c1Cl [Compound B-125] |  | A (Mortality 100%) |
| Cc1nn(C)c(Cl)c1NC(=O)Cc1ccc(Oc2ncc(C(F)(F)F)cc2Cl)cc1 [Compound D-6] | A (Mortality 100%) |  |
| Cc1nn(C)c(Cl)c1NC(=O)CCc1ccc(Oc2ccc(C#N)cc2)cc1 [Compound D-8] | A (Mortality 100%) |  |
| Cc1nn(C)c(Cl)c1NC(=O)Cc1ccc(Br)s1 [Compound D-12] | A (Mortality 100%) |  |
| COc1cc(CC(=O)Nc2c(C)nn(C)c2Cl)ccc1Oc1ccc(C(F)(F)F)cn1 [Compound D-14] | A (Mortality 100%) |  |
| COc1cc(CC(=O)Nc2c(C)nn(C)c2Cl)ccc1Oc1ccc([N+](=O)[O-])cn1 [Compound D-15] | A (Mortality 100%) |  |
| Cc1nn(C)c(Cl)c1NC(=O)Cc1ccc(-c2ccsc2)cc1 [Compound D-22] |  | A (Mortality 100%) |
| Cc1cc(CC(=O)Nc2c(C)nn(C)c2Cl)ccc1Oc1ccc(C(F)(F)F)cn1 [Compound D-26] | A (Mortality 100%) |  |
| Cc1nn(C)c(Cl)c1NC(=O)Cc1ccc(Oc2ccc(C(F)(F)F)cn2)c([N+](=O)[O-])c1 [Compound D-29] | A (Mortality 100%) |  |
| Cc1cc(Oc2ccc(C(F)(F)F)cn2)ccc1CC(=O)Nc1c(C)nn(C)c1Cl [Compound D-31] | A (Mortality 100%) |  |
| CCn1nc(C)c(NC(=O)Cc2ccc(Oc3ccc(C(F)(F)F)cn3)c(OC)c2)c1Cl [Compound D-38] | A (Mortality 100%) |  |
| CCn1ncc(NC(=O)Cc2ccc(Oc3ccc(C(F)(F)F)cn3)cc2)c1Cl [Compound D-41] | A (Mortality 100%) |  |
| COc1c(CC(=O)Nc2cnn(C)c2Cl)ccc(Oc2ccc(C(F)(F)F)cn2)c1OC [Compound D-42] | A (Mortality 100%) |  |
| COc1cc(CC(=O)Nc2cnn(C)c2Cl)cc(OC)c1Oc1ccc(C(F)(F)F)cn1 [Compound D-43] | A (Mortality 100%) |  |

| Structure (SMILES) | insecticidal effect (mortality) [1] | insecticidal effect (insect death rate) [2] |
| --- | --- | --- |
| Cc1c(CC(=O)Nc2cnn(C)c2Cl)ccc(Oc2ccc(C(F)(F)F)cn2)c1C [Compound D-44] | A (Mortality 100%) |  |
| COc1cc(CC(=O)Nc2cnn(C)c2Cl)ccc1Oc1ccc(Cl)cn1 [Compound D-47] |  | A (Mortality 100%) |
| CCCn1ncc(NC(=O)Cc2ccc(Oc3ccc(C(F)(F)F)cn3)c(OC)c2)c1Cl [Compound D-51] |  | A (Mortality 100%) |
| CN(O)c1cc(CC(=O)Nc2cnn(C)c2Cl)ccc1Oc1ccc(C(F)(F)F)cn1 [Compound D-52] | A (Mortality 100%) |  |
| CCn1ncc(NC(=O)Cc2ccc(Oc3ccc([N+](=O)[O-])cn3)c(OC)c2)c1Cl [Compound D-53] | A (Mortality 100%) |  |
| Cn1ncc(NC(=O)Cc2ccc(Oc3ccc(Cl)nn3)cc2)c1Cl [Compound D-56] |  | A (Mortality 100%) |
| CCOCN(C(=O)Cc1ccc(Oc2ccc(C(F)(F)F)cn2)c(OC)c1)c1cnn(CC)c1Cl [Compound D-60] |  | A (Mortality 100%) |
| COc1cc(CC(=O)Nc2cnn(-c3ccccc3)c2Cl)ccc1Oc1ccc(C(F)(F)F)cn1 [Compound D-61] | A (Mortality 100%) |  |
| CCn1ncc(N(COC)C(=O)Cc2ccc(Oc3ccc(C(F)(F)F)cn3)c(OC)c2)c1Cl [Compound D-63] |  | A (Mortality 100%) |
| CCn1ncc(NC(=O)Cc2ccc(Oc3cccc(C(F)(F)F)n3)c(OC)c2)c1Cl [Compound D-65] |  | A (Mortality 100%) |
| CCn1ncc(NC(=O)Cc2ccc(Oc3ncccc3C#N)c(OC)c2)c1Cl [Compound D-72] | A (Mortality 100%) |  |
| CCn1ncc(NC(=O)Cc2ccc(Oc3ccc(I)cn3)c(OC)c2)c1Cl [Compound D-77] |  | A (Mortality 100%) |
| CCn1ncc(NC(=O)Cc2ccc(Oc3ccc(C(F)(F)F)cn3)c(Oc3ccc(C(F)(F)F)cn3)c2)c1Cl [Compound D-80] | A (Mortality 100%) |  |
| CCn1ncc(NC(=O)Cc2ccc(Oc3ncc(Br)cn3)c(OC)c2)c1Cl [Compound D-81] | A (Mortality 100%) |  |
| CCCN(C(=O)Cc1ccc(Oc2ccc(C(F)(F)F)cn2)c(OC)c1)c1cnn(CC)c1Cl [Compound D-82] |  | A (Mortality 100%) |
| CCn1ncc(N(C(=O)Cc2ccc(Oc3ccc(C(F)(F)F)cn3)c(OC)c2)C(C)C)c1Cl [Compound D-83] |  | A (Mortality 100%) |
| CCn1ncc(NC(=O)Cc2ccc(Oc3ncc(Cl)cc3Cl)c(OC)c2)c1Cl [Compound D-93] | A (Mortality 100%) |  |
| COc1cc(CC(=O)Nc2cnn(CCF)c2Cl)ccc1Oc1ccc(C(F)(F)F)cn1 [Compound D-95] | A (Mortality 100%) |  |
| CCn1ncc(NC(=O)C(O)c2ccc(Oc3ccc(C(F)(F)F)cn3)c(OC)c2)c1Cl [Compound D-132] | A (Mortality 100%) |  |
| CCn1ncc(NC(=O)Cc2ccc(Oc3ccc(C(F)(F)F)nc3)c(OC)c2)c1Cl [Compound D-139] | A (Mortality 100%) |  |
| COc1cc(CC(=O)Nc2cnn(C)c2Br)ccc1Oc1ccc(C(F)(F)F)cn1 [Compound D-185] | A (Mortality 100%) |  |
| CCn1ncc(NC(=O)Cc2ccc(Oc3cccnc3)cc2)c1Cl [Compound D-187] | A (Mortality 100%) |  |

Source: patent publication US20040043904A1, “N-(4-pyrazolyl) amide derivatives, chemicals for agricultural and horticultural use, and usage of the same” (priority 2003, published 2004)
